Binding data for one substance are collected here from publication PMC8882189, “Identification of Nanog as a novel inhibitor of Rad51” (Cell Death & Disease, 2022).

The chains behind the UniProt entries cited, without tags or fusion partners.
UniProt Q08297: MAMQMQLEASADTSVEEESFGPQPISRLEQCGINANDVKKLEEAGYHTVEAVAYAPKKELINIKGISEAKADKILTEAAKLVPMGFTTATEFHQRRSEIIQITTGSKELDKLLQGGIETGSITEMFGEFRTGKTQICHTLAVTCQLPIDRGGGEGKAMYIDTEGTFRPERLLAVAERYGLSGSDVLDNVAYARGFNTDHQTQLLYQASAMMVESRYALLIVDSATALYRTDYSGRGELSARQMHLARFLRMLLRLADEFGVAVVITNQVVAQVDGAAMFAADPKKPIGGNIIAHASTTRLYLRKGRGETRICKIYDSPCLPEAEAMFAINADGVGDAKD

These are yes or no findings as the source states them, for the method shown. Binding seen in cells or lysates may run through a third protein. Some binding calls cover weakened binding; strength is not graded here.

This assay has as its target T1, Nanog (endogenous, mouse ES cells) (mouse (endogenous in mouse ES cells)) (UniProt Q80Z64).
T1 sequence: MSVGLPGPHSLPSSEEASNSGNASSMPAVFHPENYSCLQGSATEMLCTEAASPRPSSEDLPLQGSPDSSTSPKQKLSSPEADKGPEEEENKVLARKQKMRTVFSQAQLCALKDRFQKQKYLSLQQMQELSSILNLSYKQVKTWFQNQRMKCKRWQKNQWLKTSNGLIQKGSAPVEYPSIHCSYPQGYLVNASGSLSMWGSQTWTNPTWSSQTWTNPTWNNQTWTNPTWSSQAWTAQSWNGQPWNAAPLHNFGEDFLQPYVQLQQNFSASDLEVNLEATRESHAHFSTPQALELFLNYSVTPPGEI
Kind of assay: co-IP; mouse ES cell whole cell extracts; IP with the antibody against Nanog or Rad51, western blot for Rad51 and Nanog respectively; Protein-G beads, 4 °C overnight, NP40 lysis buffer washes. On the technique in general: Immunoblotting shows a protein as a band on a membrane.

Turning to “Rad51 (endogenous, mouse ES cells) (from UniProt Q08297 1-339)”, the binding entry is listed as “binds”.
